Screening data, single-dose tests

Sequences of proteins named here, by UniProt entry; tags and fusion partners are left off. Residues count along the entry.
UniProt A4I591, 1-473: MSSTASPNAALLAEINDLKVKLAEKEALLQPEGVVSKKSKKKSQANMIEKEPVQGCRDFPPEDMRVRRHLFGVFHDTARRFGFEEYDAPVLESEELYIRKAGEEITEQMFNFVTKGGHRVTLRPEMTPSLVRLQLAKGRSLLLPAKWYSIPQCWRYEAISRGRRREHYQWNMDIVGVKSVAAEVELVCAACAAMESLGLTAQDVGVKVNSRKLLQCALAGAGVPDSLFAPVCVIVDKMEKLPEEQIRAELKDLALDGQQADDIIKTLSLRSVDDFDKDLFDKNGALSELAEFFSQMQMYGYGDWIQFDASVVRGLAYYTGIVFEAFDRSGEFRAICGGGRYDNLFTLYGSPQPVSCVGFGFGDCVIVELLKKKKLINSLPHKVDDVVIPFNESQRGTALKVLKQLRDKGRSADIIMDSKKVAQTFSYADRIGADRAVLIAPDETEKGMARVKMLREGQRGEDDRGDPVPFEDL
UniProt Q8IDJ8, 1-583: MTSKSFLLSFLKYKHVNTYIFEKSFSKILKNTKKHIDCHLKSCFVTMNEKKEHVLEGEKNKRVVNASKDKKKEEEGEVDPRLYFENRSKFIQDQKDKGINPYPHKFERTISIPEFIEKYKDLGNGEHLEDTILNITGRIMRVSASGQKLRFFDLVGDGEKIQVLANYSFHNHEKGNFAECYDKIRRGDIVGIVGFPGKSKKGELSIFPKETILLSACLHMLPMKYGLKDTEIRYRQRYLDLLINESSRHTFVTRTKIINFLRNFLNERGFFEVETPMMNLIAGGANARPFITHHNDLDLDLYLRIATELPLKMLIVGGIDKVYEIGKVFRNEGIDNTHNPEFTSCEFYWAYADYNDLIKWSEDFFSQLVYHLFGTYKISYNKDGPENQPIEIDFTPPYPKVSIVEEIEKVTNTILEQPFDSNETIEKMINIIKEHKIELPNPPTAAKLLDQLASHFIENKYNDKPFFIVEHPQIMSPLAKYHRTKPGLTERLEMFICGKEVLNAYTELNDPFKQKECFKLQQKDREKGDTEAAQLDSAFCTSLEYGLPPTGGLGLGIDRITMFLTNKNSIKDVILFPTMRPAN
UniProt Q4DA54, 1-478: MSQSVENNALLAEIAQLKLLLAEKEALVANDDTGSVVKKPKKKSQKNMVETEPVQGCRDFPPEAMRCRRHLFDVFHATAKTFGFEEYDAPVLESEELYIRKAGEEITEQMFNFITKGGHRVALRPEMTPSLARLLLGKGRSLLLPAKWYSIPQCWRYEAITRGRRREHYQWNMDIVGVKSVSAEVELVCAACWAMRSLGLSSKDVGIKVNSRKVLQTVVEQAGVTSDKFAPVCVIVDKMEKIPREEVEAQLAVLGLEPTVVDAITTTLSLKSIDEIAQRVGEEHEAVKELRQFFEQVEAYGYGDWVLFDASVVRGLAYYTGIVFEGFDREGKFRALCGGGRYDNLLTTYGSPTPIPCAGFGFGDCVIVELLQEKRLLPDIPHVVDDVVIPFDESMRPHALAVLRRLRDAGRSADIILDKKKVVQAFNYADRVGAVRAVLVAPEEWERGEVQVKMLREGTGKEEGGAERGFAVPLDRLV

The filed quantity is “Percent Effect” (%).
The record does not define 0% and 100%; most values in the screen are far below 50% and negative numbers occur (in some assays of this library far below -100).
This is an unselected part of the compounds tested.

LiHisRS: 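Enzyme assay of histidyl-tRNA synthetase; the read-out is not stated. Target: Histidine-tRNA ligase, Leishmania infantum (UniProt A4I591). Tested at 30 µM. The record gives no direction; compounds that gave an IC50 in retests scored well above the rest, so higher reads as stronger inhibition. The assay is labelled LdHisRS but filed under L. infantum. Of about 69,000 compounds tested this way, about 410 (0.6%) reached 50% or more in at least one test.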
PfKRS1: 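Enzyme assay of the cytosolic lysyl-tRNA synthetase in 384-well plates, read by luminescence. Target: Lysine-tRNA ligase, Plasmodium falciparum 3D7 (UniProt Q8IDJ8). Tested at 30 µM. Direction is inferred from only a few compounds that gave an IC50; most scored high, so higher reads as stronger inhibition. About 69,000 compounds were tested under these conditions; 0.071% (about 49) showed 50% or more at least once.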
TcHisRS: 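Enzyme assay of histidyl-tRNA synthetase; the read-out is not stated. Target: Histidine-tRNA ligase, Trypanosoma cruzi CL Brener (UniProt Q4DA54). Compounds at 30 µM. Direction is inferred from retests: higher values go with stronger inhibition. Size under these conditions: about 69,000 compounds, about 31 of them at 50% or above in at least one test.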

* CN(C)CCn1c(=O)oc2ccc(NC(=O)CSc3ccccc3)cc21 : LiHisRS: 22.32%; PfKRS1: 6.061%; TcHisRS: 11.67%
* c1ccc(CN2CCOC3(COCCN(c4ncccn4)C3)C2)nc1 (stereo unspecified) : LiHisRS: 4.274%; PfKRS1: 3.924%; TcHisRS: 3.743%
* O=C1CSC(C(F)(F)F)c2c(O)nn(C3CCCCC3)c2N1 (stereo unspecified) : LiHisRS: 23.68%; PfKRS1: 1.788%; TcHisRS: -6.098%
* O=S(=O)(N1CCC(n2cccc2)CC1)N1CCCC1c1ccco1 (stereo unspecified) : LiHisRS: 10.32%; PfKRS1: 2.011%; TcHisRS: 4.706%
* O=C(Cc1ccsc1)N1CCC(c2noc(-c3ccncc3)n2)CC1 : LiHisRS: -3.158%; PfKRS1: 2.235%; TcHisRS: 8.209%
* CCCc1n[nH]c(C2CN(Cc3nnc(C4CCC4)o3)CCO2)n1 (stereo unspecified) : LiHisRS: 11.86%; PfKRS1: 1.25%; TcHisRS: 4%
* Cc1cccc2c1nc(CCO)n2-c1ccc(N)nc1 : LiHisRS: 39.34%; PfKRS1: 15.06%; TcHisRS: 8.081%
* O=C(NC[C@H]1C[C@@H]2CCN1C[C@@H]2CN1CCCCC1)Nc1ccccc1 : LiHisRS: 5.556%; PfKRS1: 3.877%; TcHisRS: 9.901%
* Cc1ccccc1N1CCN(C(=O)CCc2nncn2C)C(C)C1 (stereo unspecified) : LiHisRS: 10.62%; PfKRS1: 11.12%; TcHisRS: 2.679%
* CC(c1nc(-c2ccccc2)no1)N1CC(n2cccn2)C1 (stereo unspecified) : LiHisRS: 9.211%; PfKRS1: 11.75%; TcHisRS: 4.433%
* CCc1nc2n(n1)CC(NCc1nc3ccccc3o1)CC2 (stereo unspecified) : LiHisRS: 0%; PfKRS1: -2.171%; TcHisRS: 0%
* CCOC(=O)CCN(Cc1cccnc1)C(=O)c1cc(Cl)c[nH]1 : LiHisRS: 24.29%; PfKRS1: 7.065%; TcHisRS: 11.7%
* CNC(=O)N1CC[C@@H]2CN(Cc3cccnc3)S(=O)(=O)[C@@H]2CC1 : LiHisRS: 7.519%; PfKRS1: 7.23%; TcHisRS: 0.5525%
* c1ccc2c3c([nH]c2c1)CN(Cc1cc2n(n1)CCNC2)CC3 : LiHisRS: 27.87%; PfKRS1: 3.682%; TcHisRS: 14.14%
* O=C(CC1COCCN1)NCCc1noc(-c2ccccc2)n1 (stereo unspecified) : LiHisRS: 3.665%; PfKRS1: -3.764%; TcHisRS: 4.813%
* O=C([C@H]1C[C@H]2[C@H](CCN2Cc2cccs2)O1)N1CCOCC1 : LiHisRS: 17.43%; PfKRS1: -1.131%; TcHisRS: 0.4808%
* CC(CNCc1ccc(Cl)cc1)Oc1ccccn1 (stereo unspecified) : LiHisRS: -13.16%; PfKRS1: -1.867%; TcHisRS: 6.433%
* O=C1NC2(CCN(C(=O)c3ccc(Cl)cc3)CC2)CC1c1ccccc1 (stereo unspecified) : LiHisRS: 9.677%; PfKRS1: 5.304%; TcHisRS: 1.02%
* Cc1cccc(NC2CCN(C(=O)Nc3ccc(F)c(F)c3)CC2)n1 : LiHisRS: 3.571%; PfKRS1: -0.1158%; TcHisRS: 2.326%
* Cc1cnn(-c2ccc(S(=O)(=O)N(C)CC(F)F)cc2F)c1 : LiHisRS: 19.18%; PfKRS1: 4.392%; TcHisRS: 11.11%
* O=C1CCC(c2ccccc2)(c2ccccc2)CN1CCO : LiHisRS: 23.94%; PfKRS1: 5.726%; TcHisRS: 10.5%
* CS(=O)(=O)N1CCCC1c1cccc(Cc2ccccc2F)n1 (stereo unspecified) : LiHisRS: 13.54%; PfKRS1: 5.615%; TcHisRS: 9.574%
* CNC(=O)N1CCC2(CC1)c1ncc(C)n1CCN2C : LiHisRS: 9.615%; PfKRS1: 1.793%; TcHisRS: 7.263%
* Cc1ccc(-c2cn[nH]c2C2CCCN(c3cnccn3)C2)cc1 (stereo unspecified) : LiHisRS: 9.091%; PfKRS1: -0.217%; TcHisRS: 7.407%
* Cc1cc(C[C@@H]2COC[C@H]2NCc2ccc(C(C)C)cc2)on1 : LiHisRS: 24%; PfKRS1: 2.077%; TcHisRS: 3.745%
* COc1cccc([C@@]2(O)CC[C@@H]3CN(C(=O)c4cn(C)nc4C)C[C@@H]32)c1 : LiHisRS: 7.042%; PfKRS1: 1.401%; TcHisRS: 1.515%
* CCNc1ccnc(N2Cc3cnn(Cc4ccc(F)cc4)c3C2)n1 : LiHisRS: 16.67%; PfKRS1: 2.959%; TcHisRS: -31.28%
* CN1CCC(c2cncc(-c3cccc(Cl)c3)n2)CC1 : LiHisRS: 14%; PfKRS1: 1.255%; TcHisRS: -0.7491%
* O=C(NCC1CCOC1)c1cc(-c2ccccc2Cl)[nH]n1 (stereo unspecified) : LiHisRS: 15.5%; PfKRS1: 2.533%; TcHisRS: 3.571%
* Cn1ccnc(Sc2ccccc2)c1=O : LiHisRS: 17.12%; PfKRS1: 8.926%; TcHisRS: 8.333%
* CCc1nc2n(n1)CCCC2NC(=O)Nc1cc(OC)ccc1C (stereo unspecified) : LiHisRS: 33.33%; PfKRS1: 5.264%; TcHisRS: 9.244%
* CSc1ncc(C(=O)N2C[C@H]3CC[C@@H]2CN(c2ncccn2)C3)cn1 : LiHisRS: 2.4%; PfKRS1: -4.694%; TcHisRS: -1.508%
* CN(Cc1ccc(F)cc1)C(=O)CN1CCOC(Cn2cccn2)C1 (stereo unspecified) : LiHisRS: 5.128%; PfKRS1: -0.7637%; TcHisRS: 5.413%
* Cn1cc(CC(=O)N2CCC(Nc3cccnn3)CC2)c2ccccc21 : LiHisRS: 28.12%; PfKRS1: -1.627%; TcHisRS: 3.422%
* CCCn1nc(C2CCNCC2)n(Cc2ccccc2)c1=O : LiHisRS: 19.23%; PfKRS1: 1.827%; TcHisRS: 1.667%

4 of the entries, repeated:

Result for O=C(NCC1CCOC1)c1cc(-c2ccccc2Cl)[nH]n1 (stereo unspecified) was LiHisRS: 15.5%; PfKRS1: 2.533%; TcHisRS: 3.571%.
Result for O=C1CSC(C(F)(F)F)c2c(O)nn(C3CCCCC3)c2N1 (stereo unspecified) was LiHisRS: 23.68%; PfKRS1: 1.788%; TcHisRS: -6.098%.
Result for CS(=O)(=O)N1CCCC1c1cccc(Cc2ccccc2F)n1 (stereo unspecified) was LiHisRS: 13.54%; PfKRS1: 5.615%; TcHisRS: 9.574%.
Result for Cn1cc(CC(=O)N2CCC(Nc3cccnn3)CC2)c2ccccc21 was LiHisRS: 28.12%; PfKRS1: -1.627%; TcHisRS: 3.422%.

From ChEMBL document CHEMBL3988442, “University of Dundee, Small-Polar-MMV Screening Library” (2021).